Test results: publication PMC10564622
No constants are given. Whether binding was seen depends on the method and setting.

Sequences of proteins named here, by UniProt entry; tags and fusion partners are left off.
UniProt Q14145: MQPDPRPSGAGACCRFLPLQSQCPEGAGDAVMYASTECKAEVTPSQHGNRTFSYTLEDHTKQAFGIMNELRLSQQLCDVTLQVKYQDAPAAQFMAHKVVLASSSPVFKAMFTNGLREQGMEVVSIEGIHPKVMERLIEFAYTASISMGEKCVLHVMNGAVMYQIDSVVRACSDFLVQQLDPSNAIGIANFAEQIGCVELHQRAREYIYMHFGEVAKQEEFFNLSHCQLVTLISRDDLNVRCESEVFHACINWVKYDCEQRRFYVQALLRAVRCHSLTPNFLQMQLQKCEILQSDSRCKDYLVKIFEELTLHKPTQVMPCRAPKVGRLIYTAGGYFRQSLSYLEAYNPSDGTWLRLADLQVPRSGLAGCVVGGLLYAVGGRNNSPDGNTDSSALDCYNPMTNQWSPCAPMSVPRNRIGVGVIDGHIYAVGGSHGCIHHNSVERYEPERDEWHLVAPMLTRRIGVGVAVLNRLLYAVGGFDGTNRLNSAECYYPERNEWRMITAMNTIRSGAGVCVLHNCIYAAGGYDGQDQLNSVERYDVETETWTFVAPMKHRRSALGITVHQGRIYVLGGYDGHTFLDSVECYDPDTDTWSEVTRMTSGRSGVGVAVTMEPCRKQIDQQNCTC

Target: KEAP1FL (full-length, untagged KEAP1, residues 1–624), unlabeled (human) (UniProt Q14145)
Assay: FRET or BRET; KEAP1FL dimerization TR-FRET assay with a mixture of CoraFluor-1- and FITC-labeled Nrf2-derived peptides (…-CONH2); KLHL11_(BTB-BACK) titrated up to 25 μM; both purified

- binding: no binding (tested: 25 μM)
B1: KLHL11_(BTB-BACK) (human KLHL11 residues 67–340) (domain or fragment, UniProt Q9NVR0 67-340)
chain: EAEDFECSSHCSELSWRQNEQRRQGLFCDITLCFGGAGGREFRAHRSVLAAATEYFTPLLSGQFSESRSGRVEMRKWSSEPGPEPDTVEAVIEYMYTGRIRVSTGSVHEVLELADRFLLIRLKEFCGEFLKKKLHLSNCVAIHSLAHMYTLSQLALKAADMIRRNFHKVIQDEEFYTLPFHLIRDWLSDLEITVDSEEVLFETVLKWVQRNAEERERYFEELFKLLRLSQMKPTYLTRHVKPERLVANNEVCVKLVADAVERHALRAENIQSGT
